Laboratory results reported in PubChem BioAssay AID1439 (NMMLSC, 2008).
Out of some 220,000 compounds screened, about 770 (0.35%) were called active. Inconclusive results, whose numbers are uncertain, are shown with a selection of clear calls. Rule as the data show it: active = binding response below about 49% or above about 150%; inconclusive = no clear call, values can overlap the other calls; inactive = in between.

Amino acid sequences for entries named in this document (tags omitted).
UniProt P09471, whole entry, looked up: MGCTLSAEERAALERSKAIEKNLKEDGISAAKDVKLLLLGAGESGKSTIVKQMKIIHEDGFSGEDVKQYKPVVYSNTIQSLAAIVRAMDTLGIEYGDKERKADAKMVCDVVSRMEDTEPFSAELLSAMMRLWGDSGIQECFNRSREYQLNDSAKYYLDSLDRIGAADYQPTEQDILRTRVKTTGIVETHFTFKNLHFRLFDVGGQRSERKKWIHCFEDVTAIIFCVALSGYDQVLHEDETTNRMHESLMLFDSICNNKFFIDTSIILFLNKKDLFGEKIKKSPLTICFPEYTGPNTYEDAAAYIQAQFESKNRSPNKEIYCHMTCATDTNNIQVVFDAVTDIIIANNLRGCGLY

target: Guanine nucleotide-binding protein G(o) subunit alpha (Homo sapiens) (UniProt P09471); experiment: RGS7-Galphao binding modulators, primary screen, biochemical, multiplexed bead flow cytometry (AID 1439); conditions: at 10 µM, actives lie on both sides;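 also: fluorescent Galphao held in activated GDP-AlF4 state binding bead-coupled RGS7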

Compound | binding response (% of control)
CCN(CCn1cccn1)Cc1cn[nH]c1-c1cccc2ccccc12 | inconclusive: 96%
O=C1c2ccccc2C(=O)N1CCC1=CCCCC1 | inactive: 106%
CC(=O)Nc1ccc(NC(=O)CSc2nc3nc(-c4cccs4)cc(C(F)(F)F)c3c(=O)[nH]2)cc1 | inconclusive: 108%
COCCOC(=O)c1nccnc1C(=O)Nc1ccc(S(=O)(=O)N2CCOCC2)cc1 | inconclusive: 83.3%
CC1Oc2ccccc2N(CC(=O)NCc2ccccc2)C1=O (stereo unspecified) | inactive: 104%
Cc1cc(=O)[nH]c(SCC(=O)Nc2cc(S(=O)(=O)N3CCCC3)ccc2Cl)n1 | inconclusive: 110%
COC(=O)N/N=C/c1ccccc1Cl | inconclusive: 76%
c1ccc(-c2nnsc2Sc2ccccn2)cc1 | inconclusive: 104%
N#CC(C#N)=c1ccc2c(c1)N1C(c3ccccc3)=CC(c3ccccc3)C3CCCCC31N=2 (stereo unspecified) | inconclusive: 80.6%
CCCNC(=O)c1nnsc1Sc1ccc(Cl)cc1 | inactive: 106%
COc1ccccc1C(=O)Nc1ncc2c(n1)CC(c1ccco1)CC2=O (stereo unspecified) | inactive: 98.7%
CC1(c2ccc3ccccc3c2)NC(=O)N(CC(=O)Nc2cccc(S(=O)(=O)N3CCOCC3)c2)C1=O (stereo unspecified) | inactive: 101%
O=C(N/N=C/c1ccc(O)cc1)c1cccc(N/N=C/c2ccc(O)cc2)c1 | inconclusive: 156%
COc1ccc(S(=O)(=O)N(CCC(N)=O)Cc2ccco2)cc1OC | inconclusive: -12.2%
C=CCn1c(SC(C)C#N)nc2sc(CC)cc2c1=O (stereo unspecified) | inactive: 102%
Cc1ccc(-n2c(SCC(=O)Nc3ccc(C(=O)O)cc3)nnc2-c2ccncc2)cc1 | inconclusive: 77%
Cc1ccc(-n2nc(C)c3onc(C)c3c2=O)cc1 | inconclusive: 124%
CC12CCC(C(=O)NNc3ccc([N+](=O)[O-])cc3)(OC1=O)C2(C)C (stereo unspecified) | inconclusive: 97%
Cc1ccc(SCC(=O)Nc2cc([N+](=O)[O-])ccc2O)cc1 | inactive: 103%
CC(C)c1ccc(OCc2ccc(C(=O)NN3CCN(C)CC3)o2)cc1 | inactive: 103%
CC1(C)Cc2cccc(C(=O)Nc3ccc(Cl)cc3)c2O1 | inconclusive: 76.5%
CC1(C)Cc2ccccc2-c2nnc(-c3ccc4ccccc4n3)n21 | inactive: 85.1%
COc1c(Cl)cc(C(=O)Nc2ccccc2-c2ccccc2)cc1Cl | inactive: 104%

Compound | binding response (% of control)
COCCSc1nnc(NC(=O)Cc2ccc(OC)cc2)s1 | inconclusive: 89.3%
CCN1CCN(CC(=O)Nc2cc3c(cc2C(C)=O)OCO3)CC1 | inconclusive: 109%
Cc1ccc(C#CC[N+](C)(C)CC#Cc2ccccc2)cc1 | inactive: 104%
CCOCCCNc1nc2c(C)cccn2c(=O)c1/C=C1\SC(=S)N(C(C)CC)C1=O (stereo unspecified) | inconclusive: -456%
CCOC(=O)C1=C(CS(=O)(=O)c2ccc(C)cc2)NC(=O)NC1c1ccc(O)c(OC)c1 (stereo unspecified) | inconclusive: 103%
CCn1c2ccccc2c2cc(NC(=O)Nc3ccc([N+](=O)[O-])cc3C)ccc21 | inconclusive: 112%
O=C(O)/C=C/C(=O)Nc1nccs1 | inconclusive: 131%
CCOC(=O)c1ccc(Nc2c(OCC)c(=O)c2=O)cc1 | inconclusive: 86.5%
Cc1nc(-c2ccc(Cl)cc2)sc1C1(C)CC(c2ccc([N+](=O)[O-])cc2)=NO1 (stereo unspecified) | inconclusive: 94.5%
COc1ccc(/C=N/Nc2ccccn2)c(OC)c1OC | inconclusive: 104%
O=C(COc1nncc2ccccc12)Nc1ccc(Br)cc1F | inconclusive: 104%
O=C(CN1CCCC1)Nc1cc(C(F)(F)F)cc(C(F)(F)F)c1 | inconclusive: 104%
CC(C)Oc1ccc(C(=O)NC(=S)Nc2ccc(Cl)c(C(=O)O)c2)cc1 | inconclusive: 131%
CN1CCN(NC(=O)c2ccc(Cl)c(S(=O)(=O)Nc3ccc(Cl)cc3)c2)CC1 | inconclusive: 213%
O=c1[nH][nH]c(=S)n1-c1ccccc1C(F)(F)F | inconclusive: 112%
O=C(NNC(=O)c1ccc([N+](=O)[O-])cc1)NC1CCCCC1 | inconclusive: 125%
Nc1nc(-c2ccc(Cl)cc2)cc(C(F)(F)F)n1 | inactive: 118%
Cc1ccc(C(=O)COc2ncnc3cc(Cl)ccc23)cc1 | inconclusive: 97.2%
O=C(O)CCCC(=O)Nc1ccccc1Oc1ccccc1 | inconclusive: 39.8%
Cc1ccc(C)c(OCC(=O)O/N=C(\N)c2cccnc2)c1 | inconclusive: 97.3%
O=C(Nc1ccc(N2CCOCC2)cc1)C1CCN(S(=O)(=O)c2ccccc2F)CC1 | inconclusive: 2.16%
CC(=O)c1c(C)[nH]c(C(=O)NCCc2ccc(Cl)cc2)c1C | inconclusive: 98.7%
CO/N=C/CC(=O)c1cnc(-c2ccc(Cl)cc2)s1 | inactive: 93.2%

Compound | binding response (% of control)
CCN1CCN(c2ccc([N+](=O)[O-])cc2S(=O)(=O)N2CCOCC2)CC1 | inconclusive: 105%
COc1ccc(CCCC(=O)N/N=C/c2ccccc2OC)cc1 | inactive: 98.8%
CCN(CC)c1ccc(NC(=O)COc2ccc(N(C)S(=O)(=O)c3cccs3)cc2)cc1 | inconclusive: 125%
O=C(CN1CCc2ccccc21)NN1CC(=O)N(c2ccc(Cl)cc2)CC1=O | inconclusive: 157%
O=C(CCCc1nc2ccccc2s1)NCc1cccnc1 | inactive: 102%
CC1(C)CC(=O)C(C=NCC2CCN(C(=O)Nc3ccc(Cl)c(Cl)c3)CC2)=C(O)C1 | inactive: 99.7%
CC(C)(C)C(=O)Nc1ccccc1C(=O)NCc1cccnc1 | inconclusive: 121%
O=C1C(Cc2ccc(O)cc2)NC(=S)N1C1CCCCC1 (stereo unspecified) | inconclusive: 101%
CC/C(C)=N\Nc1nc(-c2cc3cc(OC)ccc3oc2=O)cs1 | inconclusive: 185%
Cc1ccc(-c2nn(-c3ccccc3)cc2/C=C2\SC(=S)N(CC(=O)O)C2=O)cc1 | inconclusive: 82.9%
Cc1ccc(NS(=O)(=O)c2cccc3nsnc23)cc1 | inconclusive: 109%
NS(=O)(=O)c1ccc(Cl)cc1[N+](=O)[O-] | inconclusive: 74.9%
COc1ccc(Cl)cc1/C=C(\C#N)C(N)=O | inactive: 103%
COc1ccc(C(=O)NC2CCN(C(=S)NCCc3ccccc3)CC2)cc1 | inactive: 91.3%
COc1ccc(Nc2nc(NCC3CCCO3)nc(N)c2[N+](=O)[O-])cc1 (stereo unspecified) | inconclusive: 91.9%
O=C1CC(N2CCOCC2)=NN1c1ccc([N+](=O)[O-])cc1 | inconclusive: 98.2%
Cn1nc(C(C)(C)C)cc1C(=O)Sc1cccc(Br)c1 | inconclusive: 96.9%
O=C1c2ccccc2C(=O)c2c([N+](=O)[O-])ccc(O)c21 | inconclusive: 77.1%
CC(=O)c1cccc(NS(=O)(=O)c2ccc(N/C=C\C(=O)c3ccc(C)cc3)cc2)c1 | active: 264% [activator]
O=C(NCc1ccc2c(c1)OCO2)Nc1cccc2ccccc12 | inconclusive: 115%
CCn1nc(C)cc1C(=O)n1nc(C)c(Sc2ncccn2)c1C | inconclusive: 273%
CSc1ncc(OCc2ccccc2)c(=O)[nH]1 | inconclusive: 101%
CCC1(C)CC2(CCCN(CCC(O)(c3ccccc3)c3ccccc3)C2)CCO1 (stereo unspecified) | inconclusive: 91.7%

Compound | binding response (% of control)
C/C(=N/OC(=O)C1CC12CCC2)c1ccc(Br)cc1 (stereo unspecified) | inactive: 98.5%
Cc1cccc(-c2cc3nc(C)c(C)c(NCCCn4ccnc4)n3n2)c1 | inconclusive: 94.1%
O=C(O)CCn1nnc2ccccc21 | inconclusive: 151%
COc1ccccc1N1CCN(C(=O)CCC(=O)O)CC1 | inactive: 98.9%
O=C(OCCCCN1C(=O)c2ccccc2C1=O)c1ccc(S(=O)(=O)N2CCCC2)cc1 | inactive: 104%
O=C1C=C(NNC(=O)c2cccnc2)CC(c2ccco2)C1 (stereo unspecified) | inactive: 99%
CC1=CC(C)(C)n2c(O)c(N=N)c3c(C)c(C)cc1c32 | inconclusive: 103%
O=C(NCCc1c[nH]c2ccccc12)/C(=C\c1cccnc1)NC(=O)c1ccccc1F | inconclusive: 198%
C/C(=N\NC(=O)c1cccc(N/N=C(\C)c2cc(O)ccc2O)c1)c1cc(O)ccc1O | inconclusive: 74.7%
COc1cccc(-n2c(CN3CCN(c4ccccn4)CC3)nc3ccc([N+](=O)[O-])cc3c2=O)c1 | inconclusive: 91.8%
CC1Cc2ccccc2N1C(=S)NC(=O)C1(C)CC1(Cl)Cl (stereo unspecified) | active: 13.3%
CCN(CC)C(=S)NC(=O)c1cc(OC)c(OC)c(OC)c1 | inconclusive: 94.4%
COC(=O)C(F)(F)Sc1c(C)[nH]c2ccccc12 | active: 158% [activator]
Clc1cccc(N=NN2CCOCC2)c1Cl | inconclusive: 85.8%
COC(=O)c1sc(SC)c(S(=O)(=O)C(C)C)c1N | inconclusive: 84.2%
O=C(/C=C/c1ccccc1[N+](=O)[O-])N1CCN(C(=O)c2ccco2)CC1 | inconclusive: 106%
COC(=O)/C=C1\S/C(=N\N=C\CC(=O)OC)NC1=O | inconclusive: 84.2%
COc1ccc(C(=O)NC(=S)SCC(=O)O)cc1 | inconclusive: 111%
Cc1cc(C)n(CCC(=O)N/N=C/c2cccc([N+](=O)[O-])c2)n1 | inconclusive: 142%
CC(=O)[C@H]1[C@H](CCc2ccccc2)NC(=O)N(Cc2ccccc2)[C@@H]1C | inconclusive: 107%
FC(F)(F)c1ccc(C2[C@H]3CN(Cc4ccc(-c5ccccc5)cc4)[C@H](c4ccccc4)C34CC2(c2ccccc2)C4)cc1 (stereo partly specified) | inconclusive: 96%
CC(C)(C)C1CCC(=NNC(=O)CN(c2ccccc2)S(=O)(=O)c2ccccc2[N+](=O)[O-])CC1 (stereo unspecified) | inactive: 128%
